Laboratory results reported in the supplement of paper PMC10849652.
Some of the results follow.

Amino acid sequences for entries named in this document (tags omitted). A change or cut given only in a name is not applied to a line headed by its entry.
UniProt Q9BRP8: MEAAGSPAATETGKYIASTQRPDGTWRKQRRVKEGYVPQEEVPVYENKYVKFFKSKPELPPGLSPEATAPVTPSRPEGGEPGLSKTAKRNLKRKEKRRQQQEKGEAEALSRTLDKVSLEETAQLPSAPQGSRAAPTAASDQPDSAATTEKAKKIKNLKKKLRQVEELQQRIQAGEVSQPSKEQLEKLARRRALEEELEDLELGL
UniProt Q6PGN9: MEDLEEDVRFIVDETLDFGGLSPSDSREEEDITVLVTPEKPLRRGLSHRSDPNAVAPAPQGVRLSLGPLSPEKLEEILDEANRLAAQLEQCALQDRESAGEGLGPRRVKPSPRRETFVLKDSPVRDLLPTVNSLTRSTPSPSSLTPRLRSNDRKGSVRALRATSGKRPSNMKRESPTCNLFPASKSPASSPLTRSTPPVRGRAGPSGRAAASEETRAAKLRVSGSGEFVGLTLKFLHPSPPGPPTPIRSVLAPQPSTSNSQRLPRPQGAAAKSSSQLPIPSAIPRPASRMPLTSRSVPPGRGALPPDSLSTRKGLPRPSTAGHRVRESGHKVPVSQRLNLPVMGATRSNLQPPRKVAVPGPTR
UniProt Q969U7: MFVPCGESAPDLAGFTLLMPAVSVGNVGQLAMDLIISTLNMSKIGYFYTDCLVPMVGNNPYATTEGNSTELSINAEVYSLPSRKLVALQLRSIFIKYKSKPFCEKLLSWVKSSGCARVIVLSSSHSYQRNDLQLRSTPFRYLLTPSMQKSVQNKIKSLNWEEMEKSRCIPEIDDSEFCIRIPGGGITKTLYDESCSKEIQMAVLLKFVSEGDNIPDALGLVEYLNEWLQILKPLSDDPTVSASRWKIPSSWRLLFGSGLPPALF
UniProt P55036: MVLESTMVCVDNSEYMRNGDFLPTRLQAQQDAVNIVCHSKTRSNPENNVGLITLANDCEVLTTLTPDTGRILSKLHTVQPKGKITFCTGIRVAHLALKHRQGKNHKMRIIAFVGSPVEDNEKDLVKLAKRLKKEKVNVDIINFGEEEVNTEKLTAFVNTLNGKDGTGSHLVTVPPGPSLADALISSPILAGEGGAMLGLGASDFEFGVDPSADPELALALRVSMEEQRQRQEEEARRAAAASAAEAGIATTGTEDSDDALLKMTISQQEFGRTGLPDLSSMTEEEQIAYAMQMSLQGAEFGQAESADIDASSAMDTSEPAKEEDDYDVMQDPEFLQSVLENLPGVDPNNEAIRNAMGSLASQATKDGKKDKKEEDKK
UniProt Q9H7Z7: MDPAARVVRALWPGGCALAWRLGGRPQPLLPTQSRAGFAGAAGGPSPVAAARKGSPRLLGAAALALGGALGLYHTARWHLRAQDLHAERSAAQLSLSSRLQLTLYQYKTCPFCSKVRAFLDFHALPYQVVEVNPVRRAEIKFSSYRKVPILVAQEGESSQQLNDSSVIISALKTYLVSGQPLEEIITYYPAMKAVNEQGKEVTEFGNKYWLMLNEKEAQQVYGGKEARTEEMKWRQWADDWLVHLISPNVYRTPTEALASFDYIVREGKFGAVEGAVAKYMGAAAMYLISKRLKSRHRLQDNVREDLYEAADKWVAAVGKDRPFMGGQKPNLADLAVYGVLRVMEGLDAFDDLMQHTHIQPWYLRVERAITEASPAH
UniProt P49720: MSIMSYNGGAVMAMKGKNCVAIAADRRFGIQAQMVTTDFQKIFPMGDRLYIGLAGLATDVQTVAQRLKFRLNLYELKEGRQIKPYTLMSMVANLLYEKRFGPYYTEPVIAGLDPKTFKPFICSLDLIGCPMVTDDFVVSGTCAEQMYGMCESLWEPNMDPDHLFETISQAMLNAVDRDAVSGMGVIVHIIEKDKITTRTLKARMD
UniProt P25786: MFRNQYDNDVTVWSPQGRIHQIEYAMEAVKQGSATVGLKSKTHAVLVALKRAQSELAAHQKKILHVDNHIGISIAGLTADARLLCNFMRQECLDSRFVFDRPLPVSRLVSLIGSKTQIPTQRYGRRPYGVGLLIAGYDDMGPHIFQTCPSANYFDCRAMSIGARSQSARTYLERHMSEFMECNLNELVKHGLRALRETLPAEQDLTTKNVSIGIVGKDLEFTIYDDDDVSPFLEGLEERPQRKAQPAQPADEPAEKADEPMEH
UniProt P07602: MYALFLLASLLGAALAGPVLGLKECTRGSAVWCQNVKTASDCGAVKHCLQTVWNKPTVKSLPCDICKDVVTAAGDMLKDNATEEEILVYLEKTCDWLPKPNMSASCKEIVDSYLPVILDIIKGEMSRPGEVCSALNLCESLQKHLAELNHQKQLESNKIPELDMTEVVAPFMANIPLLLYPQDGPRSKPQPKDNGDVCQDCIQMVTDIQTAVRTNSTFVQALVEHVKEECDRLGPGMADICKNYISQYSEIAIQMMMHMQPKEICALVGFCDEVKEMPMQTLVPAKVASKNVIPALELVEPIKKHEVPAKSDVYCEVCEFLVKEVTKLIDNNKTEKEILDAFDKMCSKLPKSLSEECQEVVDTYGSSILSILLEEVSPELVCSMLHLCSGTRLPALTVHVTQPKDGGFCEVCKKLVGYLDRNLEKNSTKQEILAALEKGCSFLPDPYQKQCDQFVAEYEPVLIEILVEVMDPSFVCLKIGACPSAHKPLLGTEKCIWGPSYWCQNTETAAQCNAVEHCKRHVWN
UniProt P20962: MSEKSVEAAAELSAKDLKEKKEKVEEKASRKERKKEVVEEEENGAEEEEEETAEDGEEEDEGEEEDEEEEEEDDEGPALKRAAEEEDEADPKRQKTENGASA
UniProt Q53H96: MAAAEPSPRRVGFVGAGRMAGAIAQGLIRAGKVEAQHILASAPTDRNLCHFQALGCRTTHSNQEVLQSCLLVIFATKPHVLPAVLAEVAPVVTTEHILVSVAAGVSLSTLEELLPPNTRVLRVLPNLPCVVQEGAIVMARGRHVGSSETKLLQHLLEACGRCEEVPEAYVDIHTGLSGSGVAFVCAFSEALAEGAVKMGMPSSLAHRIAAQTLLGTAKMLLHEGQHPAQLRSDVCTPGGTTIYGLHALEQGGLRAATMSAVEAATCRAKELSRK
UniProt Q9BXR0: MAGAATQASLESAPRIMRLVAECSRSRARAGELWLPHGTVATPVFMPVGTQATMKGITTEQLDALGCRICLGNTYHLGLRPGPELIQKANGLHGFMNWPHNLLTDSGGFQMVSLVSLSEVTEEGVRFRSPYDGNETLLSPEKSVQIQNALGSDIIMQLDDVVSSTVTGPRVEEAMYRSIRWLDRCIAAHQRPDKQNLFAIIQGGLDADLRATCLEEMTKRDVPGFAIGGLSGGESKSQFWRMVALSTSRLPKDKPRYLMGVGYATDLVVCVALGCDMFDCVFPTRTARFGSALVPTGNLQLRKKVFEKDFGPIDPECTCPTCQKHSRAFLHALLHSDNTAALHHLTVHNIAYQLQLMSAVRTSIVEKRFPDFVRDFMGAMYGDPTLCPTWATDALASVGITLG
UniProt Q9NR77: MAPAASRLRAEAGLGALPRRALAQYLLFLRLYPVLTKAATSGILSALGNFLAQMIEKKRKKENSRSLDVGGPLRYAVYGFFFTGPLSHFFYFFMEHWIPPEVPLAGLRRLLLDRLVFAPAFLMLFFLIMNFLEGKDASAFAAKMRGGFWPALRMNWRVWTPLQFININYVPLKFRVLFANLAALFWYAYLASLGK
UniProt Q8TB72: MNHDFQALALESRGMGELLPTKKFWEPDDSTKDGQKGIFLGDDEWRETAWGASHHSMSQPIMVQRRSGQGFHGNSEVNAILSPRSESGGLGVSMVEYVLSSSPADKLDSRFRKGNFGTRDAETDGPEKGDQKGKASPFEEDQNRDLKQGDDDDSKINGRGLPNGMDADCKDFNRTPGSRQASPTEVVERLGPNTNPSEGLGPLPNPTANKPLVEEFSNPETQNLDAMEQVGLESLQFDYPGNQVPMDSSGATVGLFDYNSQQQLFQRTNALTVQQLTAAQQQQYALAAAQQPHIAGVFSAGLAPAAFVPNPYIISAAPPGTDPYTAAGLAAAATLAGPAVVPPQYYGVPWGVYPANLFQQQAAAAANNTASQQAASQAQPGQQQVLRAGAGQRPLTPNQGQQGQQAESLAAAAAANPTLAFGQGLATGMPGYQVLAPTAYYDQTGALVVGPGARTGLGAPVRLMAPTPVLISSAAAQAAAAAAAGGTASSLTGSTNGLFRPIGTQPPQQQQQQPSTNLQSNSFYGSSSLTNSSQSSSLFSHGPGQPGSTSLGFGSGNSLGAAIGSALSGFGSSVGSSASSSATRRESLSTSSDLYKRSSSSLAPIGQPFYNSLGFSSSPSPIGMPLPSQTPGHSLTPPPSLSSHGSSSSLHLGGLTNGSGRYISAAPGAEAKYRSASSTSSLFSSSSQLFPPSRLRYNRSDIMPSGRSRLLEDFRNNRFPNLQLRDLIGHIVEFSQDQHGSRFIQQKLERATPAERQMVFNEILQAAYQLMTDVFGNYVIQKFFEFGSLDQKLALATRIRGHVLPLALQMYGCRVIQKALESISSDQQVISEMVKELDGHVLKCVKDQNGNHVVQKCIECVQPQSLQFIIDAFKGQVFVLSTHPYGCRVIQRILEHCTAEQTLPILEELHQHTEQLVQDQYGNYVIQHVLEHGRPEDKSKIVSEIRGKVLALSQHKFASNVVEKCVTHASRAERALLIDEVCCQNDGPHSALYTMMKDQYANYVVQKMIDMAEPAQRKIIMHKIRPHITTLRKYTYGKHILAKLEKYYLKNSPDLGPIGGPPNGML
UniProt Q9BT73: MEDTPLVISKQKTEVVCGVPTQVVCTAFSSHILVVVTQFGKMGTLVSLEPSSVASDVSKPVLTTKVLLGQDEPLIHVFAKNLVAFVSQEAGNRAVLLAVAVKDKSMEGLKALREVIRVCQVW

Columns and labels:
Assay in all cases: log2 fold change, soluble protein after heating vs DMSO (PISA); higher = thermal stabilisation; K562 cells, 10 uM, 30 min; active = over 0.2 and 3.5 SD of the protein, either way, in both replicates (recomputed)
[1] = compound: CC1=C(C=C(C=C1)NC(=O)C2=CC(=CC=C2)C(C)(C)C#N)NC3=CC4=C(C=C3)N=CN(C4=O)C
Summary of the method: (§1)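 K562 cells (2×10^6 cells/mL) were treated with 10 μM compound for 30 min, and aliquots were heated for 3 min over 48°C-58°C. Pooled aliquots were extracted in PBS with 0.5% NP-40 at 4°C, and the supernatant after 21,000xg for 90 min was measured by TMTpro 16plex LC-MS/MS with channel sums equalised. Reported thermal stability, relative to control samples and from duplicates, is a log2 fold change.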

[2] = compound: CC1=C(C=C(C=C1)NC(=O)C2=CC(=CC=C2)N(C)C)NC(=O)C3=CC=C(C=C3)O
Summary of the method: as §1

[3] = compound: CC1=CC=C(C=C1)SC2=C3C=C(SC3=CN=C2)C(=O)N
Summary of the method: as §1

[4] = compound: CC1=NC(=CC=C1)C2=C(N=C(N2)C(C)(C)C)C3=CC4=NC=CN=C4C=C3
Summary of the method: as §1

Nexturastat A = compound: CCCCN(Cc1ccc(C(=O)NO)cc1)C(=O)Nc1ccccc1 [Nexturastat A]
Summary of the method: as §1

vemurafenib = compound: CCCS(=O)(=O)Nc1ccc(F)c(C(=O)c2c[nH]c3ncc(-c4ccc(Cl)cc4)cc23)c1F [vemurafenib]
Summary of the method: as §1

[5] = compound: CCCS(=O)(=O)Nc1ccc(F)c(C(=O)c2c[nH]c3ncc(Cl)cc23)c1F
Summary of the method: as §1

[6] = compound: CCCc1cc(C)[nH]c(=O)c1CNC(=O)c1cc(-c2ccnc(N3CCN(C)CC3)c2)cc2c1cnn2C(C)C
Summary of the method: as §1

givinostat = compound: CCN(CC)Cc1ccc2cc(COC(=O)Nc3ccc(C(=O)NO)cc3)ccc2c1 [givinostat]
Summary of the method: as §1

barasertib = compound: CCN(CCCOc1ccc2c(Nc3cc(CC(=O)Nc4cccc(F)c4)[nH]n3)ncnc2c1)CCOP(=O)(O)O [barasertib]
Summary of the method: as §1

[7] = compound: CC[C@@H]1C(=O)N(C)c2cnc(Nc3ccc(C(=O)NC4CCN(C)CC4)cc3OC)nc2N1C1CCCC1
Summary of the method: as §1

volasertib = compound: CC[C@@H]1C(=O)N(C)c2cnc(Nc3ccc(C(=O)N[C@H]4CC[C@H](N5CCN(CC6CC6)CC5)CC4)cc3OC)nc2N1C(C)C [volasertib]
Summary of the method: as §1

[8] = compound: CC[C@H](C)N1C=C(C2=C(C=C(C=C21)C3=CN=C(C=C3)N4CCNCC4)C(=O)NCC5=C(C=C(NC5=O)C)C)C
Summary of the method: as §1

epoxomicin = compound: CC[C@H](C)[C@@H](C(=O)N[C@@H]([C@@H](C)O)C(=O)N[C@@H](CC(C)C)C(=O)[C@]1(CO1)C)NC(=O)[C@H]([C@@H](C)CC)N(C)C(=O)C [epoxomicin]
Summary of the method: as §1

[9] = compound: CCn1c(C(=O)N(C2CC2)C2CC2)cc2c3c(ncn3C)c(Nc3cc(C)n(C)n3)nc21
Summary of the method: as §1

[10] = compound: CCn1cc(-c2ccnc3[nH]c(-c4cccc(CN(C)C)c4)cc23)c(-c2ccc(NC(=O)N(C)C)cc2)n1
Summary of the method: as §1

[11] = compound: CN(C)CC(=O)Nc1ccc2[nH]c(=O)c3ccccc3c2c1
Summary of the method: as §1

rosiglitazone = compound: CN(CCOC1=CC=C(C=C1)C[C@H]2C(=O)NC(=O)S2)C3=CC=CC=N3 (racemic) [rosiglitazone]
Summary of the method: as §1

[12] = compound: CN1C2=C(C3=C1C(=O)N(N=C3)CC4=CC(=CC=C4)N)SC(=C2)S(=O)C
Summary of the method: as §1

[13] = compound: CN1CCC(CNc2ccc3ncc(-c4cccc(OC(F)(F)F)c4)n3n2)CC1
Summary of the method: as §1

Measured: log2 fold change

PYM1 (UniProt Q9BRP8)
inactive: [1] -0.067 | [2] 0 | [3] -0.023 | [4] -0.031 | Nexturastat A 0.144 | vemurafenib -0.082 | [5] -0.119 | [6] 0.015 | givinostat -0.016 | barasertib -0.066 | [7] 0.158 | volasertib 0.258 | [8] -0.044 | epoxomicin -0.128 | [9] -0.047 | [10] 0.136 | [11] -0.076 | rosiglitazone -0.011 | [12] 0.075 | [13] 0.123

PTCD3 (UniProt Q96EY7)
inactive: [1] 0.065 | [2] 0.006 | [3] 0.041 | [4] 0.001 | Nexturastat A 0.164 | vemurafenib 0.08 | [5] 0.09 | [6] 0.042 | givinostat 0.001 | barasertib -0.051 | [7] -0.024 | volasertib 0.051 | [8] 0.102 | epoxomicin 0.055 | [9] -0.029 | [10] -0.014 | [11] -0.019 | rosiglitazone 0.012 | [12] 0.045 | [13] 0.08

PSRC1 (UniProt Q6PGN9)
inactive: [1] 0.016 | [2] 0.002 | [3] -0.032 | [4] -0.12 | Nexturastat A 0.086 | vemurafenib 0.012 | [5] -0.085 | [6] 0.068 | givinostat 0.091 | barasertib -0.065 | [7] 0.139 | volasertib 0.102 | [8] -0.018 | epoxomicin 0.039 | [9] 0.024 | [10] 0.031 | [11] -0.012 | rosiglitazone -0.006 | [12] 0.002 | [13] -0.011

PSMG2 (UniProt Q969U7)
inactive: [1] 0.003 | [2] 0.036 | [3] 0.006 | [4] 0.028 | Nexturastat A -0.058 | vemurafenib -0.011 | [5] -0.008 | [6] -0.058 | givinostat -0.023 | barasertib -0.015 | [7] 0.005 | volasertib 0.012 | [8] -0.013 | epoxomicin -0.036 | [9] 0.008 | [10] -0.003 | [11] -0.006 | rosiglitazone 0 | [12] -0.087 | [13] -0.013

PTPN11 isoform 1 (UniProt Q06124)
inactive: [1] 0.03 | [2] -0.022 | [3] 0.009 | [4] 0.014 | Nexturastat A -0.084 | vemurafenib 0.028 | [5] 0.013 | [6] -0.004 | givinostat -0.059 | barasertib 0.031 | [7] 0.014 | volasertib -0.05 | [8] 0.02 | epoxomicin 0.054 | [9] -0.018 | [10] -0.044 | [11] -0.012 | rosiglitazone 0.011 | [12] -0.064 | [13] -0.02

PSMD4 (UniProt P55036)
inactive: [1] -0.001 | [2] 0.05 | [3] -0.035 | [4] -0.019 | Nexturastat A 0.115 | vemurafenib -0.058 | [5] -0.028 | [6] 0.02 | givinostat -0.03 | barasertib -0.033 | [7] 0.033 | volasertib 0.169 | [8] 0.017 | epoxomicin -0.184 | [9] 0.015 | [10] 0.1 | [11] -0.023 | rosiglitazone -0.048 | [12] 0.012 | [13] 0.037

Quoted from the results shown (2 entries):
PTCD3 (UniProt Q96EY7)
inactive: [1] 0.065 | [2] 0.006 | [3] 0.041 | [4] 0.001 | Nexturastat A 0.164 | vemurafenib 0.08 | [5] 0.09 | [6] 0.042 | givinostat 0.001 | barasertib -0.051 | [7] -0.024 | volasertib 0.051 | [8] 0.102 | epoxomicin 0.055 | [9] -0.029 | [10] -0.014 | [11] -0.019 | rosiglitazone 0.012 | [12] 0.045 | [13] 0.08

PSRC1 (UniProt Q6PGN9)
inactive: [1] 0.016 | [2] 0.002 | [3] -0.032 | [4] -0.12 | Nexturastat A 0.086 | vemurafenib 0.012 | [5] -0.085 | [6] 0.068 | givinostat 0.091 | barasertib -0.065 | [7] 0.139 | volasertib 0.102 | [8] -0.018 | epoxomicin 0.039 | [9] 0.024 | [10] 0.031 | [11] -0.012 | rosiglitazone -0.006 | [12] 0.002 | [13] -0.011

Next part:

PTGES2 (UniProt Q9H7Z7)
inactive: [1] -0.019 | [2] -0.001 | [3] 0.022 | [4] 0.014 | Nexturastat A -0.039 | vemurafenib 0.005 | [5] -0.001 | [6] -0.035 | givinostat -0.011 | barasertib 0.002 | [7] -0.021 | volasertib 0.076 | [8] -0.048 | epoxomicin 0.005 | [9] 0.054 | [10] -0.022 | [11] -0.02 | rosiglitazone -0.013 | [12] -0.045 | [13] -0.032

PSMB3 (UniProt P49720)
inactive: [1] 0.02 | [2] 0.015 | [3] -0.058 | [4] -0.012 | Nexturastat A 0.043 | vemurafenib -0.032 | [5] -0.036 | [6] -0.015 | givinostat -0.028 | barasertib -0.044 | [7] 0.08 | volasertib 0.142 | [8] -0.052 | epoxomicin -0.134 | [9] 0.022 | [10] 0.034 | [11] -0.041 | rosiglitazone -0.059 | [12] 0.006 | [13] 0.086

PSMA1 isoform 2 (UniProt P25786)
inactive: [1] 0.019 | [2] 0.028 | [3] -0.013 | [4] -0.011 | Nexturastat A -0.02 | vemurafenib -0.029 | [5] -0.036 | [6] 0.003 | givinostat -0.051 | barasertib -0.047 | [7] 0.04 | volasertib 0.156 | [8] -0.066 | epoxomicin -0.164 | [9] 0.022 | [10] 0.041 | [11] -0.039 | rosiglitazone -0.03 | [12] 0.011 | [13] 0.05

PSAP isoform 3 (UniProt P07602)
inactive: [1] 0.012 | [2] -0.012 | [3] 0.191 | [4] 0.032 | Nexturastat A -0.071 | vemurafenib 0.013 | [5] -0.134 | [6] -0.006 | givinostat -0.076 | barasertib 0.024 | [7] -0.043 | volasertib -0.041 | [8] -0.037 | epoxomicin 0.069 | [9] 0.012 | [10] 0.005 | [11] -0.027 | rosiglitazone 0.037 | [12] 0.019 | [13] 0.012

PTMS (UniProt P20962)
inactive: [1] 0.018 | [2] 0.03 | [3] 0.018 | [4] 0.073 | Nexturastat A -0.053 | vemurafenib 0.031 | [5] 0.024 | [6] 0.011 | givinostat -0.006 | barasertib 0.002 | [7] 0.013 | volasertib 0.078 | [8] -0.007 | epoxomicin 0.021 | [9] 0.01 | [10] -0.009 | [11] 0.007 | rosiglitazone -0.012 | [12] -0.002 | [13] -0.056

PYCR3 (UniProt Q53H96)
inactive: [1] 0.019 | [2] -0.024 | [3] 0.024 | [4] -0.024 | Nexturastat A 0.013 | vemurafenib -0.024 | [5] -0.014 | [6] -0.051 | givinostat -0.006 | barasertib -0.006 | [7] 0.002 | volasertib 0.006 | [8] -0.016 | epoxomicin -0.041 | [9] -0.003 | [10] 0.003 | [11] -0.01 | rosiglitazone 0.014 | [12] -0.053 | [13] 0.034

QTRT1 (UniProt Q9BXR0)
inactive: [1] 0.036 | [2] 0.002 | [3] 0.004 | [4] -0.032 | Nexturastat A -0.002 | vemurafenib -0.026 | [5] 0.01 | [6] -0.057 | givinostat -0.097 | barasertib -0.006 | [7] 0.03 | volasertib 0.053 | [8] -0.005 | epoxomicin 0.012 | [9] -0.001 | [10] -0.028 | [11] -0.013 | rosiglitazone 0.018 | [12] -0.039 | [13] -0.014

PXMP2 (UniProt Q9NR77)
inactive: [1] 0.024 | [2] 0.006 | [3] 0.02 | [4] 0.039 | Nexturastat A -0.078 | vemurafenib 0.027 | [5] -0.012 | [6] -0.082 | givinostat 0.03 | barasertib -0.004 | [7] 0.036 | volasertib -0.021 | [8] -0.024 | epoxomicin -0.038 | [9] 0.039 | [10] -0.034 | [11] 0.044 | rosiglitazone -0.016 | [12] -0.025 | [13] 0.017

PUM2 (UniProt Q8TB72)
inactive: [1] -0.073 | [2] -0.023 | [3] -0.036 | [4] 0.035 | Nexturastat A 0.153 | vemurafenib 0.013 | [5] 0.011 | [6] -0.081 | givinostat -0.095 | barasertib 0 | [7] 0.015 | volasertib -0.032 | [8] 0.01 | epoxomicin 0.098 | [9] 0.029 | [10] 0.075 | [11] -0.159 | rosiglitazone 0.006 | [12] 0.037 | [13] -0.038

PSMG3 (UniProt Q9BT73)
inactive: [1] -0.074 | [2] -0.016 | [3] 0.033 | [4] 0.006 | Nexturastat A 0.006 | vemurafenib -0.027 | [5] 0.073 | [6] 0.044 | givinostat -0.018 | barasertib -0.019 | [7] 0.011 | volasertib -0.002 | [8] 0.01 | epoxomicin 0.046 | [9] 0.04 | [10] 0.02 | [11] 0.036 | rosiglitazone -0.082 | [12] -0.147 | [13] -0.002
